The data set can be described thus: MAS-DNP NMR performance of polarizing agents (DNP enhancement, buildup time, sensitivity). The conditions noted are these: 10 mM in glycerol-d8/D2O/H2O (60:30:10), partially protonated aqueous matrix; 9.4, 8 kHz MAS, ~110 K.

For `CC1(C)Sc2c(c(C(c3c4c(c(C(=O)[O-])c5c3SC(C)(C)S5)SC(C)(C)S4)c3c4c(c(C(=O)N5CCN(C(=O)C6=CC(C)(C)N(O)C6(C)C)CC5)c5c3SC(C)(C)S5)SC(C)(C)S4)c3c(c2C(=O)[O-])SC(C)(C)S3)S1.[Na+].[Na+]` [PyrroTriPol], the “returned sensitivity relative to TEMTriPol-1” value worked out at 1.6 times.

Source of the values: US20240400585A1, “TRITYL-NITROXIDE MULTIRADICALS AS POLARIZING AGENTS FOR DYNMAIC NUCLEAR POLARIZATION” (Commissariat a l'Energie Atomique et aux Energies …, priority 2021, published 2024).
